The other results are listed elsewhere or left out.
target: T1, OsSMF1 (Oryza sativa, UniProt Q6ZLB0 1-436); experiment: protein-binding microarray (RPBM); PBS, 2% BSA, 51.3 ng/ul salmon testes DNA, 50 uM zinc acetate, 200 nM TF, 25 C, 1 h; high values mean tight binding; details: protein: recombinant; tags: N-terminal polyhistidine and DsRed monomer fusion (pET32a); chain copies: 2; label: CyDye5-dUTP incorporated in the synthesized complementary strand; 3' TTTTT single-stranded linker to array surface; dsDNA, one strand shown
T1 sequence: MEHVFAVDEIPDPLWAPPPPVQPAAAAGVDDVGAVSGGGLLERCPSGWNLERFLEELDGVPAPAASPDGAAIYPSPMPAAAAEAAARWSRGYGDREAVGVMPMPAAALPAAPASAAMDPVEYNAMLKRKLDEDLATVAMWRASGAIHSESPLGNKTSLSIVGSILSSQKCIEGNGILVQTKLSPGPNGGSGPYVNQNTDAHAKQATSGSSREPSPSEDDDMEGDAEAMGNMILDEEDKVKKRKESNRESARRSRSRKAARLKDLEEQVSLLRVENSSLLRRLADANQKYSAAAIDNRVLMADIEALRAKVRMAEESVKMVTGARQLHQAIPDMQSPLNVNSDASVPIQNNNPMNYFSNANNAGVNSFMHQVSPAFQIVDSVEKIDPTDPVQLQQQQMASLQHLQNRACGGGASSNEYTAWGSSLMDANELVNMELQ
Summary of the method: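 Polyhistidine-tagged DsRed fusions of transcription factors, joined at the N-terminus, were expressed in E. coli BL21-CodonPlus and isolated on Ni–NTA. They were incubated at 200 nM for 1 h at 25 °C on a custom Agilent array, double-stranded and BSA-blocked, in PBS with 2% BSA, salmon testes DNA and 50 µM zinc acetate. The binding signal is per-feature fluorescence intensity (arbitrary units) read on an Axon 4000B scanner after washing.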

Sequence | binding signal
TGGTTGTCGTCGTCGTAGTCTTGTGGGTTGCGTGCGTGCGCGGAGTCACCTAGTGCAG | 3930 fluorescence intensity (a.u.)
GTCTCTGGTGTCACTGTCACACGTAGCTTTTGATGAAGTTCGGAGTCACCTAGTGCAG | 3360 fluorescence intensity (a.u.)
GTGCTGAGTGCTGACTGGAAGCAGACAAGAACTTCTCTAGCGGAGTCACCTAGTGCAG | 3930 fluorescence intensity (a.u.)
TCCATCCATTTCACCATGTGTTTCCATGTAAGAATGTGATCGGAGTCACCTAGTGCAG | 3490 fluorescence intensity (a.u.)
GTTATTGGAGCGGCTGAGTCAGAAATTTGGCCTTCAGAGACGGAGTCACCTAGTGCAG | 7590 fluorescence intensity (a.u.)
TGCCAGTGCTATCCGTCGCCACCTACCACCTTACAACGGTCGGAGTCACCTAGTGCAG | 3530 fluorescence intensity (a.u.)
ATTCAGCGTCATGCTATTTGGCGCTGAGGTGTCTAAATTCCGGAGTCACCTAGTGCAG | 3820 fluorescence intensity (a.u.)
ATATGGGTGCTAGCCACGCAATTGCGCGGGCCACCCAGTTCGGAGTCACCTAGTGCAG | 4130 fluorescence intensity (a.u.)
ATGAAGCGGGAGCGACAGGAGATGATGGATTTCATCGACGCGGAGTCACCTAGTGCAG | 3840 fluorescence intensity (a.u.)
ACACGATGGCTATCACACAACACGTGAGCTCATGCGTTTACGGAGTCACCTAGTGCAG | 3340 fluorescence intensity (a.u.)
TCCTCCCCGTCACCGTCACCGTCACCGTCTCGTCTCCGTCCGGAGTCACCTAGTGCAG | 7090 fluorescence intensity (a.u.)
GTTAATGGTGACTTTATTTTCGTCTGTTACAAAACGGAAGCGGAGTCACCTAGTGCAG | 3250 fluorescence intensity (a.u.)
CAGCAAATTACTCTCCGTAACCTGTTAATATGTTCTCAAGCGGAGTCACCTAGTGCAG | 28800 fluorescence intensity (a.u.)
ACGGCTACCACCACACATCCTTACTCGCCGACATGTGGGCCGGAGTCACCTAGTGCAG | 3310 fluorescence intensity (a.u.)
CTCTCTGGGTTGACTTACCGTTTTAGACAAGGGCACGGTCCGGAGTCACCTAGTGCAG | 20100 fluorescence intensity (a.u.)
GAAAGCAGCGGCGCGGGGTTTTCGAGTGGGTTTGGGGATACGGAGTCACCTAGTGCAG | 3430 fluorescence intensity (a.u.)
TCATCGTCCATGTGGCATGCCATGTAGGCAAGACCACGGTCGGAGTCACCTAGTGCAG | 10600 fluorescence intensity (a.u.)
CACGGCCTCACCTCCCAGCCCGCGAGCACCGGCGGACGGACGGAGTCACCTAGTGCAG | 42400 fluorescence intensity (a.u.)
AGTTTTGGAGTCTACATGACGTTTTATGTTTGGCAACGCCCGGAGTCACCTAGTGCAG | 3340 fluorescence intensity (a.u.)
GCTGAGTACACACTGTGTCTATGGGCCACTGACTAGGAGACGGAGTCACCTAGTGCAG | 3140 fluorescence intensity (a.u.)
AAAATAAAATTTATTAATAATATTTTATCTATATTTACGACGGAGTCACCTAGTGCAG | 30400 fluorescence intensity (a.u.)

Sequence | binding signal
CTAGCACGCAGTAACAATATAACGACGTGGAATAGCTCCTCGGAGTCACCTAGTGCAG | 3210 fluorescence intensity (a.u.)
TACACACCATAATTGAAGTATTGAGTCACACATAATTGAACGGAGTCACCTAGTGCAG | 3220 fluorescence intensity (a.u.)
CTGTGGTAGGGGAGAATGAGGGCACACATGCGGGTTTAAGCGGAGTCACCTAGTGCAG | 3680 fluorescence intensity (a.u.)
AAACACCCACATAATTCCAGATGACACGTGGTATACAAGTCGGAGTCACCTAGTGCAG | 17400 fluorescence intensity (a.u.)
TGCAACGTTGGAGGAGTGCACAGTCATGGAACAACTTGATCGGAGTCACCTAGTGCAG | 4270 fluorescence intensity (a.u.)
CCCACTGCCACAGCCGCCGCAGCTCCCCGCCGTCATCGTCCGGAGTCACCTAGTGCAG | 3390 fluorescence intensity (a.u.)
AAACTGTACCCTGATGGCGCCATCTGAACGTGTCATGGCTCGGAGTCACCTAGTGCAG | 4630 fluorescence intensity (a.u.)
GAAAACAAGATGAGGAGGAAGTTGCTGACATGTGAGTTCTCGGAGTCACCTAGTGCAG | 3450 fluorescence intensity (a.u.)
TAACTTCTTGCTGAACCACGTTTGATCCTGTTATCAATTTCGGAGTCACCTAGTGCAG | 3250 fluorescence intensity (a.u.)
TGTCGTGCATGTAGATCAATCTGCTTGCCGACGTGCATGCCGGAGTCACCTAGTGCAG | 5620 fluorescence intensity (a.u.)
CGTTATCTCACGACGCCGTCCCGCCACGTCTCGCCGTTTCCGGAGTCACCTAGTGCAG | 4760 fluorescence intensity (a.u.)
GCAATGCGGCGACAAGAGTTGTCTTGCTGACAGGTGGGGCCGGAGTCACCTAGTGCAG | 4380 fluorescence intensity (a.u.)
CCCAACAATACACCACTGTTCAGTCATCTCATCACCTAGCCGGAGTCACCTAGTGCAG | 3140 fluorescence intensity (a.u.)
ACTCCACTCACACTACTGTCACCAACCTTATCTACAAATTCGGAGTCACCTAGTGCAG | 3170 fluorescence intensity (a.u.)
GTGAATGTGGAGGCACGGTGGCGAACGTGGCTGCGGTGGACGGAGTCACCTAGTGCAG | 3240 fluorescence intensity (a.u.)
CACTTGTCACGAACAGGCGCCGTGCCACCTCGGCGCATGCCGGAGTCACCTAGTGCAG | 5760 fluorescence intensity (a.u.)
AAAACGTCTAGCAACGACGCGTCGTCCCAGGCCGCTGCCGCGGAGTCACCTAGTGCAG | 3450 fluorescence intensity (a.u.)
GCCTCCCCGTCGCCGGCAAGGAGGTCGACGCGAGGAGGATCGGAGTCACCTAGTGCAG | 11100 fluorescence intensity (a.u.)
GCGGCGCCTCCGGGAAGCGCGGCGCCGCGTCCTCCTCCTCCGGAGTCACCTAGTGCAG | 3170 fluorescence intensity (a.u.)
CTCTTCCACACAACACGCCACGCCACGCCTCGCCGCGCCGCGGAGTCACCTAGTGCAG | 7740 fluorescence intensity (a.u.)
GCTGTTGGTTGGTGCCACATCCCACGCTGCCATGCCATGCCGGAGTCACCTAGTGCAG | 4910 fluorescence intensity (a.u.)

Reformatted: results already given
Sequence	binding signal
TGTCGTGCATGTAGATCAATCTGCTTGCCGACGTGCATGCCGGAGTCACCTAGTGCAG	5620 fluorescence intensity (a.u.)
CGTTATCTCACGACGCCGTCCCGCCACGTCTCGCCGTTTCCGGAGTCACCTAGTGCAG	4760 fluorescence intensity (a.u.)
GCAATGCGGCGACAAGAGTTGTCTTGCTGACAGGTGGGGCCGGAGTCACCTAGTGCAG	4380 fluorescence intensity (a.u.)
CCCAACAATACACCACTGTTCAGTCATCTCATCACCTAGCCGGAGTCACCTAGTGCAG	3140 fluorescence intensity (a.u.)
ACTCCACTCACACTACTGTCACCAACCTTATCTACAAATTCGGAGTCACCTAGTGCAG	3170 fluorescence intensity (a.u.)
GTGAATGTGGAGGCACGGTGGCGAACGTGGCTGCGGTGGACGGAGTCACCTAGTGCAG	3240 fluorescence intensity (a.u.)
CACTTGTCACGAACAGGCGCCGTGCCACCTCGGCGCATGCCGGAGTCACCTAGTGCAG	5760 fluorescence intensity (a.u.)
AAAACGTCTAGCAACGACGCGTCGTCCCAGGCCGCTGCCGCGGAGTCACCTAGTGCAG	3450 fluorescence intensity (a.u.)
GCCTCCCCGTCGCCGGCAAGGAGGTCGACGCGAGGAGGATCGGAGTCACCTAGTGCAG	11100 fluorescence intensity (a.u.)
GCGGCGCCTCCGGGAAGCGCGGCGCCGCGTCCTCCTCCTCCGGAGTCACCTAGTGCAG	3170 fluorescence intensity (a.u.)
CTCTTCCACACAACACGCCACGCCACGCCTCGCCGCGCCGCGGAGTCACCTAGTGCAG	7740 fluorescence intensity (a.u.)
GCTGTTGGTTGGTGCCACATCCCACGCTGCCATGCCATGCCGGAGTCACCTAGTGCAG	4910 fluorescence intensity (a.u.)

Source: PMC7819943, “Rice protein-binding microarrays: a tool to detect cis-acting elements near promoter regions in rice”
